From PubChem BioAssay AID2685 (National Center for Advancing Translational Sciences (NCATS), 2010) come the findings set out here.

The nature of the assay: qHTS Assay for Lipid Storage Modulators in Drosophila S3 Cells.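 As to cell number change: cells counted by Cell Tracker Red CMTPX staining in the red channel.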 The conditions noted are these: BODIPY lipid droplet fluorescence, 18-24 h; for cell number change: measured here: cell count max response, cells fed with added oleic acid. The gist of the method: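 Laser-scanning cytometry quantifies lipid droplet accumulation (500–530 nm total intensity; droplet/cell object ratio) in oleic acid-fed (400 uM added) Drosophila S3 cells treated with a concentration series. 20 uM Triacsin C defined 100% inhibition.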

Where [1] appears, read: measured here: cell number channel AC50, cells fed with added oleic acid.
Setting [2] is: measured here: lipid fluorescence (Fed channel) AC50, cells fed with added oleic acid.

The list shows a part of the results. These are further read-outs of the screen, such as a control signal, another cell line or another target. No call is given for them. The list favours compounds with an active or inconclusive main result. Words in brackets tell the shape of the fitted curve; partial curves, single points and poor fits give uncertain potencies.

Consider `CCc1ccc(OCC(=O)NN2Cc3ccccc3C2=N)cc1`, for which the AC50 (in general, the concentration at which the activity in the assay is half-maximal) under setting [1] was 0.58 µM [falling, single point] and the AC50 under setting [2] was 0.517 µM [falling, partial curve].

As for `CC(C)COc1nc2ccccc2c(=O)n1OCC(=O)O`, the cell number change worked out at 20.2%. Further, the AC50 under setting [2] was 32.6 µM [rising, single point].

As to `O=C(NCc1ccc(Cl)cc1)C1CCCCN1S(=O)(=O)c1ccccc1` (stereo unspecified), the cell number change came out at 30.4%. Further, the concentration at half-maximal activity (AC50) under setting [2] is 6.51 µM [rising, single point].

With `COc1ccc(N2CCN(C(CNC(C)=O)c3ccco3)CC2)cc1` (stereo unspecified), the cell number change was -12%.

In the case of `O=C(Nc1ccncc1)Nc1ccccc1Cl`, the cell number change was found to be 42.8%. Further, the AC50 under setting [1] is 14.6 µM [rising, partial curve, poor fit].

In the case of `CC(=O)C(Cc1cnc(Cl)s1)(Cc1cnc(Cl)s1)C(C)=O`, the cell number change is 19.9%. Further, the AC50 under setting [1] is 3.66 µM [falling, partial curve, poor fit]. In addition, under setting [2], the AC50 was 4.11 µM [falling, partial curve, poor fit].

As to `CCOc1ccc(NC(=O)CC(=O)Nc2ccc(OCC)cc2)cc1`, the cell number change was 33%. For the same compound, the AC50 under setting [1] was 29.1 µM [rising, partial curve]. Further, under setting [2], the AC50 was 23.1 µM [rising, partial curve, poor fit].

Consider `CC(=O)c1ccc(N2CCN(C(=O)c3cccs3)C(C)C2)c(F)c1` (stereo unspecified), for which the cell number change was -44.7%. Besides, the AC50 under setting [1] was 29.1 µM [falling, single point]. Besides, the AC50 under setting [2] is 2.31 µM [falling, single point].

For the compound `COc1ccc(CC(=O)Oc2cc(C)ccc2C)cc1`, the cell number change turned out to be 29.1%. Also, the AC50 under setting [2] was 29.1 µM [rising, single point].

`O=C(CN1C(=O)NC2NC(=O)NC21)N/N=C/c1ccccc1O` (stereo unspecified): the cell number change is -13.2%. Also, the AC50 under setting [2] was 0.00461 µM [falling, full curve, poor fit].

In the case of `N#C/C(=C\C=C\c1ccccc1[N+](=O)[O-])c1nc(-c2ccc3c(c2)OCO3)cs1`, the AC50 under setting [2] was 0.13 µM [rising, full curve, poor fit].

As to `O=[N+]([O-])c1ccc(C2=NN(c3ccccc3)C(c3ccco3)C2)cc1` (stereo unspecified), the cell number change is -95.4%. Under setting [1], the AC50 was 1.64 µM [falling, full curve]. Further, under setting [2], the AC50 was 0.326 µM [falling, full curve].

As to `CCn1c2ccccc2c2cc([N+](=O)[O-])ccc21`, the cell number change was 56.3%. Moreover, the AC50 under setting [1] was 20.6 µM [rising, single point]. Besides, the AC50 under setting [2] is 29.1 µM [rising, single point].

For the compound `CCCCC(=O)Nc1ccc(Br)cn1`, the cell number change is -34.4%. The AC50 under setting [1] is 0.92 µM [falling, full curve]. For the same compound, the AC50 under setting [2] was 0.731 µM [falling, full curve, poor fit].

`CC1(C)Nc2ccccc2N(CCC(=O)N2CCOCC2)C1=O`: the cell number change is -0.698%. In addition, the AC50 under setting [2] was 0.0058 µM [falling, full curve, poor fit].

Consider `CC(C)(C)C(=O)CSc1ncccn1`, for which the cell number change is 22%.

With `COc1cc(/C=N/NC(=O)c2cccnc2)ccc1OCC(=O)Nc1ccc(C)cc1`, the cell number change is 16.7%. Besides, the AC50 under setting [1] was 3.66 µM [rising, single point]. In addition, under setting [2], the AC50 is 0.411 µM [rising, full curve].

As to `CC1(/[N+]([O-])=C\c2ccccc2F)CCCCC1=O` (stereo unspecified), the cell number change was -22.2%. The AC50 under setting [2] is 0.00461 µM [falling, full curve, poor fit].

Turning to `COc1ccc2nc(SCC(=O)Nc3ccccc3C)[nH]c2c1`, the cell number change was -7.05%. Also, the AC50 under setting [2] was 0.259 µM [falling, partial curve, poor fit].

As to `CCc1c(C)sc2nc(SCC(=O)Nc3cc(C)on3)n(CCOC)c(=O)c12`, the cell number change was 24.3%. Also, under setting [2], the AC50 was 1.3 µM [rising, partial curve].

`CCCc1cc(=O)[nH]c(SCC(=O)Nc2ccc(C)cc2)n1`: the cell number change is -2.02%. The AC50 under setting [1] was 6.51 µM [falling, single point].

Consider `COC(=O)[C@@H](NC(=O)Nc1ccccc1F)C(C)C`, for which the cell number change stood at 5.38%.

Regarding `COc1ccc(CCNC(=O)c2cc(=O)c3ccc(C)cc3o2)cc1OC`, the cell number change came to 6.83%. The AC50 under setting [2] was 6.51 µM [rising, single point].

As for `Cc1ccc(C(=O)N2CCN(S(=O)(=O)c3ccc(C)cc3)CC2)cc1`, the cell number change is -42.1%. For the same compound, under setting [1], the AC50 is 3.66 µM [falling, full curve]. For the same compound, the AC50 under setting [2] is 2.59 µM [falling, full curve].

As to `O=C(CCNC(=O)N1CC(=O)Nc2ccccc21)Nc1ccc(Cl)cc1`, the cell number change was -7.03%. Further, the AC50 under setting [2] is 0.0092 µM [falling, full curve, poor fit].

Take `CSc1nsc(/C=C/Nc2ccc(C(=O)O)cc2)c1C#N`: the cell number change was -16.6%. The AC50 under setting [2] was 29.1 µM [falling, single point].

Turning to `Cc1ccc(OCCCCN2CCCCC2)cc1`, the cell number change worked out at 7.37%. Moreover, the concentration at half-maximal activity (AC50) under setting [1] was 0.461 µM [rising, partial curve, poor fit].

Regarding `CC(C)(C)NC(=O)c1nc2ccccc2s1`, the cell number change is -4.41%. Besides, the AC50 under setting [2] was 2.59 µM [rising, partial curve].

Consider `COc1ccc(NC(=O)Nc2ccc(F)cc2)cn1`, for which the cell number change was found to be 22.2%. Also, under setting [2], the AC50 is 6.51 µM [rising, single point].

Consider `COc1ccc(C(=O)Nc2ccc3oc(-c4cccnc4)nc3c2)cc1OC`, for which the cell number change is -16.6%. Further, the AC50 under setting [2] was 0.092 µM [falling, full curve, poor fit].

As for `O=C(/C=C/c1cccc([N+](=O)[O-])c1)N1CCN(c2ccccn2)CC1`, the cell number change was -23.8%. In addition, the AC50 under setting [2] is 6.51 µM [rising, single point].

On to `COc1ccc(S(=O)(=O)Cc2ccc(C(=O)N3CCN(C4CCCCC4)CC3)o2)cc1`, for which the cell number change is -13.4%. The AC50 under setting [2] is 0.092 µM [falling, full curve, poor fit].

Turning to `CC(OC(=O)c1cccc(S(=O)(=O)Nc2ccccc2F)c1)C(=O)NCc1ccc2c(c1)OCO2` (stereo unspecified), the AC50 under setting [2] was 10.3 µM [rising, partial curve, poor fit].

For the compound `CC1CCN(c2ccc(S(=O)(=O)N3CCC(C)CC3)cc2N)CC1`, the cell number change was -24.5%.

Turning to `CCC/C(=C1/C(=O)CC(C)(C)C(C(=O)OC)C1=O)N1CCCC1` (stereo unspecified), the cell number change is 22.2%. Also, the AC50 under setting [2] is 18.4 µM [rising, partial curve, poor fit].

With `CC(=O)N1c2ccc(S(=O)(=O)NC(CC(=O)O)c3ccc(Br)cc3)cc2CC1C` (stereo unspecified), the cell number change came out at 24.5%. In addition, under setting [2], the AC50 was 1.03 µM [rising, full curve].

Turning to `CCCCN(CC)C(=O)Cc1ccc(Br)cc1`, the cell number change worked out at 1.1%. Also, under setting [2], the half-maximal activity concentration (AC50) is 6.51 µM [rising, single point].

In the case of `Cc1ccccc1NC(=O)c1ccccc1NC(=O)c1cccs1`, the cell number change is 17.5%. The AC50 under setting [2] is 16.4 µM [rising, partial curve].

Consider `COc1ccc(COC(=O)CN2C(=O)NC3(CCCC3)C2=O)cc1F`, for which the cell number change is 84.7%. Also, the AC50 under setting [1] is 11.6 µM [rising, partial curve].

For `Cc1cccc(N2C(=O)N3[C@@H]4c5ccccc5OC[C@@H]4[C@@H](c4ccccc4)[C@]3(C)C2=O)c1`, the cell number change was 26.5%. Further, the half-maximal activity concentration (AC50) under setting [2] was 29.1 µM [rising, single point].

Regarding `CN(c1ccccc1)c1ccc(/C=C/[N+](=O)[O-])cc1`, the cell number change was -74%. Also, the AC50 under setting [1] is 11.6 µM [falling, partial curve]. Besides, under setting [2], the AC50 is 29.1 µM [falling, partial curve, poor fit].

Regarding `Cc1nc2ccccc2nc1CSc1nncs1`, the cell number change was -20.3%.

Regarding `CN(C)c1nc(N)nc(-c2nc3ccccc3s2)n1`, the AC50 under setting [2] is 3.66 µM [rising, partial curve].

As for `COC(=O)c1ccc2c(=O)n(CCN3CCOCC3)c(SCC(=O)Nc3ccc(C)cc3)nc2c1`, the cell number change is -19.5%. In addition, under setting [2], the AC50 was 29.1 µM [falling, single point].

Take `COc1cc(CN2CCC(C(=O)N3CCN(c4ccccc4F)CC3)CC2)cc(OC)c1O`: the cell number change was -0.419%. Further, under setting [2], the AC50 is 3.26 µM [falling, partial curve, poor fit].

Regarding `C=CCn1c(COc2cccc(C)c2)nnc1SCC(=O)NC(=O)NCc1ccco1`, the AC50 under setting [2] was 0.00517 µM [rising, full curve, poor fit].

In the case of `O=C(/C=C/c1ccc(O)c(O)c1)OC1C(O)CC(OC(=O)/C=C/c2ccc(O)c(O)c2)(C(=O)O)CC1O` (stereo unspecified), the cell number change worked out at 101%. For the same compound, the AC50 under setting [1] is 18.4 µM [rising, single point].

For `CCCCN1C(Nc2ccccc2)=NC[C@@H]1C`, the cell number change is -5.46%. Under setting [2], the AC50 is 1.84 µM [rising, partial curve].

For `C/C(=N\NC(=O)c1c(Br)c(C)nn1C)c1ccc(NC(=O)C(C)Oc2ccc(Cl)cc2C)cc1` (stereo unspecified), the cell number change is 1.63%.

As for `COc1ccc(C(CNC(=O)c2cccc(S(=O)(=O)N3CCOCC3)c2)N2CCCC2)cc1` (stereo unspecified), the cell number change was -4.21%. Besides, the AC50 under setting [2] was 0.092 µM [falling, full curve, poor fit].

For `O=C(CNc1ccc(F)cc1Cl)Nc1cccc(S(=O)(=O)N2CCCCC2)c1`, the cell number change is -4.93%.

In the case of `Cc1ccc(S(=O)(=O)N2CCC(=O)N(CCOC(=O)Nc3ccc(F)cc3)CC2)cc1`, the AC50 under setting [2] was 8.2 µM [rising, partial curve].

On to `COc1ccc(N2CCN(C(=O)CSc3nnc4n3C(C)(C)Cc3ccccc3-4)CC2)cc1`, for which the AC50 reads like this: under setting [1], 0.461 µM [rising, partial curve, poor fit]; under setting [2], 2.06 µM [rising, partial curve].

Consider `CC(C)(C)CN1CCNC(=O)C1CC(=O)NCc1cccc(-n2cccn2)c1` (stereo unspecified), for which the cell number change was determined as 7.04%. In addition, the AC50 under setting [2] was 0.0259 µM [rising, full curve, poor fit].

`CN(C(=O)c1ccncc1)C1CCCCC1`: the cell number change is -4.99%. Besides, under setting [2], the AC50 was 0.116 µM [falling, full curve, poor fit].

In the case of `CCC(CC)CN1CCN=C1Nc1ccccc1`, the cell number change is 23.8%. The AC50 under setting [1] was 6.51 µM [falling, partial curve, poor fit]. In addition, under setting [2], the AC50 is 6.51 µM [falling, partial curve, poor fit].

Turning to `COC(=O)c1cn(NC(=O)c2cc([N+](=O)[O-])ccc2F)c(=O)c2ccccc12`, the cell number change is -2.6%.

For the compound `COc1ccc(OC)c2c1C(=O)c1ccccc1C2=O`, the cell number change was -99.2%. Besides, under setting [1], the AC50 was 29.1 µM [falling, single point]. Also, the AC50 under setting [2] was 29.1 µM [falling, single point].

Turning to `CCOC(=O)c1nn(-c2ccc(OC)cc2)c(=O)c2c(N)scc12`, the cell number change was -22.3%. Moreover, the AC50 under setting [2] is 32.6 µM [falling, single point].
